Reference: the supplement of paper PMC10849652
The other results are listed elsewhere or left out.

The chains behind the UniProt entries cited, without tags or fusion partners. Where a name states a change or a piece, a line headed by the entry shows the natural chain unless it says otherwise.
UniProt P17655: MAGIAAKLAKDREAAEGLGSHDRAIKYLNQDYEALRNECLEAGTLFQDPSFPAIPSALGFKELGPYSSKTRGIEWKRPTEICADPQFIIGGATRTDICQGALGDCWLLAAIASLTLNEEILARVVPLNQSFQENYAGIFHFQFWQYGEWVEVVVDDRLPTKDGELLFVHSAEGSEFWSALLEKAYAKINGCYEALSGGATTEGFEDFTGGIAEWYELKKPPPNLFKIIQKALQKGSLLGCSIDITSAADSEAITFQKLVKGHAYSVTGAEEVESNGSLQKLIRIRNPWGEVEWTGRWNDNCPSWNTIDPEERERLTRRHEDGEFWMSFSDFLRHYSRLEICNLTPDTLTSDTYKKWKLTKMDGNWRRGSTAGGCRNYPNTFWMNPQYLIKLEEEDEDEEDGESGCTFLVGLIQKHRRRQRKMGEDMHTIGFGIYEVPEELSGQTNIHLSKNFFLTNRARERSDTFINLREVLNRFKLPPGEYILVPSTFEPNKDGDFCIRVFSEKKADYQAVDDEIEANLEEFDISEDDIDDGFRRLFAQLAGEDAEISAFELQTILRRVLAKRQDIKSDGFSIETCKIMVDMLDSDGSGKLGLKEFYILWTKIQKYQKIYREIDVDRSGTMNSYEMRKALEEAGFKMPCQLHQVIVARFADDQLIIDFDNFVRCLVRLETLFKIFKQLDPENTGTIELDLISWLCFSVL
UniProt Q9H3J6: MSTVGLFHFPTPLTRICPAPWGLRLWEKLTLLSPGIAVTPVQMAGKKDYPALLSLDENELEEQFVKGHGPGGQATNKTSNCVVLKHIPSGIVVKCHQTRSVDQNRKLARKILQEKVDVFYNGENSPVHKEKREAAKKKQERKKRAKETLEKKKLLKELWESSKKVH
UniProt Q6ZSJ8: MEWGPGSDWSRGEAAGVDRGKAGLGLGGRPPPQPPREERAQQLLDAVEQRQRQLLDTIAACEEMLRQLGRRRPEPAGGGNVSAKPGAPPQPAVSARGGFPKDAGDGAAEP
UniProt Q14444, whole entry, looked up: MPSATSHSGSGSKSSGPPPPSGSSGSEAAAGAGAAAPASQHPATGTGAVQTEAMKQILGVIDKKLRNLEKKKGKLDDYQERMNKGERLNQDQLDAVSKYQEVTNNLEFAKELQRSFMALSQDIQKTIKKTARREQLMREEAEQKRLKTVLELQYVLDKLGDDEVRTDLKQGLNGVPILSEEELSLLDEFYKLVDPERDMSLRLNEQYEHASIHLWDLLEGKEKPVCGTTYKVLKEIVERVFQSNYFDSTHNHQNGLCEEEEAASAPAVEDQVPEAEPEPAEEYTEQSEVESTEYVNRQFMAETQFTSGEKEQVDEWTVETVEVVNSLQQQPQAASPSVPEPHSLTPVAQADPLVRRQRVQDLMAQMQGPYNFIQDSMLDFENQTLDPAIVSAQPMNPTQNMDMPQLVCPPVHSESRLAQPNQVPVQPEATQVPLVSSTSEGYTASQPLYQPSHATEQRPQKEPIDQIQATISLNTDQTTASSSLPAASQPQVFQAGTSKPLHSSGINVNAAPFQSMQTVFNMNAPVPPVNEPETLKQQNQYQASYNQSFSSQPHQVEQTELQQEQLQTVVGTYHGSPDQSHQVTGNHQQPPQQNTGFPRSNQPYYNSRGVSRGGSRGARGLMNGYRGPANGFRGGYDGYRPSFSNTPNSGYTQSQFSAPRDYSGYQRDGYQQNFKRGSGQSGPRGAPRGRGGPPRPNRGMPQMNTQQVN
UniProt Q8TCD1: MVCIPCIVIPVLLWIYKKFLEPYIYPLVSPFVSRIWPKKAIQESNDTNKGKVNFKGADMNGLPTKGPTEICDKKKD
UniProt O95873: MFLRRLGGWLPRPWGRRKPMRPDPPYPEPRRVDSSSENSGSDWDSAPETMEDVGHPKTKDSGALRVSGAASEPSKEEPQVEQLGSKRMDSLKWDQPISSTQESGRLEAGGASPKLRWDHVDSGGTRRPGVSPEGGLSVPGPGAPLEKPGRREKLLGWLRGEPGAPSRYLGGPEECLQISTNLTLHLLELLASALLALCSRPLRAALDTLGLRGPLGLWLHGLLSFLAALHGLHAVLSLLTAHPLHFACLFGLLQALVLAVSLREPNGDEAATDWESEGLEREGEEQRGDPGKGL
UniProt Q07021: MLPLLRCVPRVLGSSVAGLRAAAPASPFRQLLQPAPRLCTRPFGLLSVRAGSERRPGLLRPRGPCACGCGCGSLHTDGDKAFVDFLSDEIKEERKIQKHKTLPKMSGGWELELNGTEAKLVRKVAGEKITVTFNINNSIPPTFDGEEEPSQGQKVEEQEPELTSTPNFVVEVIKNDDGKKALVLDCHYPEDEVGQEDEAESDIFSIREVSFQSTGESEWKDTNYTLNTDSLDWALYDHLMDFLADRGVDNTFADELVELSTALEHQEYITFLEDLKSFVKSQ
UniProt Q86VG3: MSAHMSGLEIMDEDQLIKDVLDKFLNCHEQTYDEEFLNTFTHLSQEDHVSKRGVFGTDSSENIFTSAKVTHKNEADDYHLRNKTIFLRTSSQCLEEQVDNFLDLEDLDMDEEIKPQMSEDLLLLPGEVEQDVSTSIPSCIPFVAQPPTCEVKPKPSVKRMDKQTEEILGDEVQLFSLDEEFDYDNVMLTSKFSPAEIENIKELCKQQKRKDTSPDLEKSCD
UniProt Q96B23: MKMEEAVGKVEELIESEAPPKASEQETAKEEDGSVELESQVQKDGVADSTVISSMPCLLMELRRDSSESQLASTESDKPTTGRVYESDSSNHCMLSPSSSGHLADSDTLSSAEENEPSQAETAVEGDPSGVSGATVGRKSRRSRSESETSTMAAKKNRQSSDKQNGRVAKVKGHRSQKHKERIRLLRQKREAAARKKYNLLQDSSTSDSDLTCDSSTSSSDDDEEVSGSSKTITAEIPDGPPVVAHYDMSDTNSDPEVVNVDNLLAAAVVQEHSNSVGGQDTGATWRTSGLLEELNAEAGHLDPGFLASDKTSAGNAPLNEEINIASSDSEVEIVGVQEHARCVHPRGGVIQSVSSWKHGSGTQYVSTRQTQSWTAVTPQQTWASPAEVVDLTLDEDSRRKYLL
UniProt O43683: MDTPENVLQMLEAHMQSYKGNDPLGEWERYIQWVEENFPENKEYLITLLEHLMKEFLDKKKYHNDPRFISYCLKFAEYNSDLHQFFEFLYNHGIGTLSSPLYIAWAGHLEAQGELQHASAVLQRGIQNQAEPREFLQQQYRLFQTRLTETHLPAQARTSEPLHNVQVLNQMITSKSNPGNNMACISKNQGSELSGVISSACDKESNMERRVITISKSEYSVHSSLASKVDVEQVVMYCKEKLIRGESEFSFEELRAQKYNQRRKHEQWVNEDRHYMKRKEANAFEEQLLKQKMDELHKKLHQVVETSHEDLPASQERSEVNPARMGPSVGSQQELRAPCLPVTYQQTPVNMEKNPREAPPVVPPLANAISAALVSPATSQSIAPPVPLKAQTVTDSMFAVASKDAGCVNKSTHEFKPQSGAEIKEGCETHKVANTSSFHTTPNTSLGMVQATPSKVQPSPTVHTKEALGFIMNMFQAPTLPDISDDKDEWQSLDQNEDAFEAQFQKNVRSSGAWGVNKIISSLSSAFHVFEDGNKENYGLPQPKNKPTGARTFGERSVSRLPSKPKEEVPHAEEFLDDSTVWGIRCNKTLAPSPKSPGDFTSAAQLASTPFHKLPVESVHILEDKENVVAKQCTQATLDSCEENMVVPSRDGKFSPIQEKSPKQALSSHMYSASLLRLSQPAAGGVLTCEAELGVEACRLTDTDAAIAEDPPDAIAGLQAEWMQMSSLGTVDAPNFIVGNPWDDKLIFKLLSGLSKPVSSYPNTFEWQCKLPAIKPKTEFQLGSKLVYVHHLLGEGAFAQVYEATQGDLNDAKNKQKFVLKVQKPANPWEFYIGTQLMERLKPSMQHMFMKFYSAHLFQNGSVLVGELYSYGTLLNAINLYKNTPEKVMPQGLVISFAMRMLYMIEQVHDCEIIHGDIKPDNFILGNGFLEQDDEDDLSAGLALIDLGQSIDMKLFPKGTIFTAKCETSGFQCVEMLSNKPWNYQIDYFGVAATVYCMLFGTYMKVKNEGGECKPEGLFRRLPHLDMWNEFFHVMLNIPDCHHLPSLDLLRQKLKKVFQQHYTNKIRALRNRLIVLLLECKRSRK
UniProt Q9BVC5: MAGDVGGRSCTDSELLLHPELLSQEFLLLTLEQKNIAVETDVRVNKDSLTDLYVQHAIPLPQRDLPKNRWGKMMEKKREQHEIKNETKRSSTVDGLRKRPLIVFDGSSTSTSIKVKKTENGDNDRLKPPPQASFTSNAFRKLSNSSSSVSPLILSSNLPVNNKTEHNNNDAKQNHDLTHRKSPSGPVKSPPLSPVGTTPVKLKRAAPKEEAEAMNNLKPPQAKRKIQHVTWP
UniProt Q3KRA6: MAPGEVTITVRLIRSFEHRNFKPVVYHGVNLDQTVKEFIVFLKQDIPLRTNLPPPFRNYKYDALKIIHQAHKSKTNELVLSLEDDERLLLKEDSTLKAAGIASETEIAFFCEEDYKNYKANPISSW
UniProt Q01518, whole entry, looked up: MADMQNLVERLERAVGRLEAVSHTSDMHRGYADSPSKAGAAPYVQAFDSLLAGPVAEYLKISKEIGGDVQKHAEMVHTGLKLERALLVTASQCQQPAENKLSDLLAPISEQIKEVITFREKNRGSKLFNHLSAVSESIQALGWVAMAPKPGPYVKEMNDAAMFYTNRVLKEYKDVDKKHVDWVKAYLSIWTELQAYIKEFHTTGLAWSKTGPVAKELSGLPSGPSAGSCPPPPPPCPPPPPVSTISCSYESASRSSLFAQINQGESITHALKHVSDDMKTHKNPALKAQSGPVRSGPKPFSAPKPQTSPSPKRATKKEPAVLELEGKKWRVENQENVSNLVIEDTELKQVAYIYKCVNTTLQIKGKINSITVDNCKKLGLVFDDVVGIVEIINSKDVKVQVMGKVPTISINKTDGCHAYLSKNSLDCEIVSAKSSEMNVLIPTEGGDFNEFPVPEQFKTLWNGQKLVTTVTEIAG
UniProt Q7KYR7: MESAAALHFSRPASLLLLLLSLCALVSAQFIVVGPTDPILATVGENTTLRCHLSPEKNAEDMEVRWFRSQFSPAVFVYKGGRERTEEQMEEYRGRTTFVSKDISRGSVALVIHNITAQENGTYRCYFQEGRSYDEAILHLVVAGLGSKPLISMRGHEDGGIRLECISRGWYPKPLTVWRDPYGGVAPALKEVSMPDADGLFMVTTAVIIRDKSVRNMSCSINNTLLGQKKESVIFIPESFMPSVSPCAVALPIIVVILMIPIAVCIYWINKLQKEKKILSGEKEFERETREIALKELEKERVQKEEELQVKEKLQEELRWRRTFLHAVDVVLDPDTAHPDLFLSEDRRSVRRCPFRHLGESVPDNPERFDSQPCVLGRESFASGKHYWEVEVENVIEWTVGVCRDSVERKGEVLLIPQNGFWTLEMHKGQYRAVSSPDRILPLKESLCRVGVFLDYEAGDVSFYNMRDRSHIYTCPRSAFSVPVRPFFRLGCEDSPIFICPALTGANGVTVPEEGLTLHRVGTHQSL
UniProt Q8N6N3: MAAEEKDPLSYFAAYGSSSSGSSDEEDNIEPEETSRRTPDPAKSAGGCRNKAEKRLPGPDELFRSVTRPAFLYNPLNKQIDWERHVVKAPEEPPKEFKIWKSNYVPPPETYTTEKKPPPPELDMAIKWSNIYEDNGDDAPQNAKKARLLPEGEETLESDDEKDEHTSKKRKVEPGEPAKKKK
UniProt Q8NDD1: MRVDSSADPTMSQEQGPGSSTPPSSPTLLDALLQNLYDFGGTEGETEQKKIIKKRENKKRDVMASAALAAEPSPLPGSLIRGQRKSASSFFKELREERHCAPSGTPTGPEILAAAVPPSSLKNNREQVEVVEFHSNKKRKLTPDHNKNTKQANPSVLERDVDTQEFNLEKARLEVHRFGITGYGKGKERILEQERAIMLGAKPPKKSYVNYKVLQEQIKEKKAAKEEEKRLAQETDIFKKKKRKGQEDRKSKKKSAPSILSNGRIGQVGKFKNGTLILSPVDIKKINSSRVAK
UniProt Q9P1Z2: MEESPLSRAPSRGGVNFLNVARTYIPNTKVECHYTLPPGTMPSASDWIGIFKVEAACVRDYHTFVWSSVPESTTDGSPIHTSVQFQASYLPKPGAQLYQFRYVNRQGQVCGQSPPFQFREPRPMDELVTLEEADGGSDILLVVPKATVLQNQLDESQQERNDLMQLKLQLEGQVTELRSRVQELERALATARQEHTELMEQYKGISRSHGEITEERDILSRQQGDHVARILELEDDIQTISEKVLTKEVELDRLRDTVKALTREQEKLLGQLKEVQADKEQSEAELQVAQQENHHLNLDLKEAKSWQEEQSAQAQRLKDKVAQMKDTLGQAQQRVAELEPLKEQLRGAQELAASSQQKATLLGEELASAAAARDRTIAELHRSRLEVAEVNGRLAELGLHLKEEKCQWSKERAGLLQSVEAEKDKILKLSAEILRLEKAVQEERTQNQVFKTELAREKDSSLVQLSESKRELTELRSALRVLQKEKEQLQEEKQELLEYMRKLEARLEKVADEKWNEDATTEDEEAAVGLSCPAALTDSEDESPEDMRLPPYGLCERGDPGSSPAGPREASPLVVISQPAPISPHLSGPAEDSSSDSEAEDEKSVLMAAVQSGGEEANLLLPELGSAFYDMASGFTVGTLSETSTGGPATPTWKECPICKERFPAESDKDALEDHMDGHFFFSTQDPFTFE

compound: c1cn2cc(-c3ccc4cn[nH]c4c3)nc(Nc3ccc(N4CCOCC4)cc3)c2n1 [entospletinib]; assay: log2 fold change, soluble protein after heating vs DMSO (PISA); higher = thermal stabilisation; K562 cells, 10 uM, 30 min; active = over 0.2 and 3.5 SD of the protein, either way, in both replicates (recomputed)
How it was run: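 Soluble protein was quantified by TMTpro 16plex LC-MS/MS after channel sums were equalised. It was obtained as the supernatant after 21,000xg for 90 min from pooled aliquots of K562 cells (2×10^6 cells/mL, 10 μM compound, 30 min) heated for 3 min across 48°C-58°C and extracted in PBS with 0.5% NP-40 at 4°C. Thermal stability values are relative to control samples and come from duplicates. They are given as log2 fold changes.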

log2 fold change, inactive:
CAMK1 (UniProt Q14012) 0.003, BTD isoform 3 (UniProt P43251) 0.187, CAPN2 (UniProt P17655) 0.016, C12orf65 (UniProt Q9H3J6) 0.086, CAAP1 (UniProt Q9H8G2) 0.093, C1orf122 (UniProt Q6ZSJ8) -0.01, CAPNS1 (UniProt P04632) -0.007, CALR (UniProt P27797) 0.035, CAPRIN1 (UniProt Q14444) 0.126, C1orf112 (UniProt Q9NSG2) -0.134, C18orf32 (UniProt Q8TCD1) 0.017, CAPZB isoform 2 (UniProt P47756) 0.053, C20orf27 isoform 2 (UniProt Q9GZN8) 0.06, C6orf47 (UniProt O95873) 0.018, C1QBP (UniProt Q07021) 0.054, CACTIN isoform 2 (UniProt Q8WUQ7) 0.185, C11orf74 (UniProt Q86VG3) 0.001, C18orf25 isoform 2 (UniProt Q96B23) 0.026, BUB1 (UniProt O43683) -0.145, CALU isoform 3 (UniProt O43852) 0.005, BUD23 isoform 3 (UniProt O43709) 0.078, C2orf49 (UniProt Q9BVC5) 0.025, CALU isoform 4 (UniProt O43852) -0.001, C2orf76 (UniProt Q3KRA6) -0.009, CAP1 (UniProt Q01518) 0.033, BTN2A1 (UniProt Q7KYR7) -0.161, C2CD2 (UniProt Q9Y426) 0.061, C11orf68 (UniProt Q9H3H3) -0.036, C1orf52 (UniProt Q8N6N3) 0.024, C1orf131 isoform 5 (UniProt Q8NDD1) 0.048, CALCOCO1 (UniProt Q9P1Z2) 0.074
